{
  "source": "paper PMC2243017",
  "key": {"[1]": {"target": "T1, GST-JIP1 full-length fusion protein (UniProt Q9WVI9)", "T1 sequence": "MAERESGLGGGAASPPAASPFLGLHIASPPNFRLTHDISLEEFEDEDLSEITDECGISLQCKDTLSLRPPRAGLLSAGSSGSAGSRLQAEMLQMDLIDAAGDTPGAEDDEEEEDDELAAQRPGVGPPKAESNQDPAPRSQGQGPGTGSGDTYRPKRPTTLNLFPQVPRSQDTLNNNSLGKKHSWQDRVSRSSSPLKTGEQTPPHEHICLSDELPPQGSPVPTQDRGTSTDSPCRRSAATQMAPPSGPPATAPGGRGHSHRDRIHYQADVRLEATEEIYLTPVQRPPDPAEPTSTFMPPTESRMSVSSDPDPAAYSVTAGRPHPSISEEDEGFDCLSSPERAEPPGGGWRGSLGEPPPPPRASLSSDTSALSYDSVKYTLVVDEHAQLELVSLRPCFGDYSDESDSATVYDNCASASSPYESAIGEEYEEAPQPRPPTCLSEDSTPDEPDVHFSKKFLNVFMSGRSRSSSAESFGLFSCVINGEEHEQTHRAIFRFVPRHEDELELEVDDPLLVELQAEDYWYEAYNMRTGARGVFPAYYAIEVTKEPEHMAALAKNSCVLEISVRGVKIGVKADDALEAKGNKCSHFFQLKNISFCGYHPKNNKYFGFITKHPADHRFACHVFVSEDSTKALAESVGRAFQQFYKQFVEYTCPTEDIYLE", "test": "SEC; extracts of Cos1 cells transfected with pGST-JIP1 alone or with pHA-TAK1, pFlag-TAB1, pFlag-MKK7, pFlag-JNK, without or with pCEFL-HA-VRK2A or pCEFL-HA-VRK2B, fractionated on Superose 12 10/300 GL (50 mM Tris-HCl pH 7.5, 1 mM EDTA, 100 mM KCl); fractions analysed by western blot"}, "[2]": {"target": "T1, GST-JIP1 full-length fusion protein", "test": "pull-down; lysates of transfected Cos1 cells (48 h; 20 mM Tris-HCl pH 7.4, 137 mM NaCl, 2 mM EDTA, 1% Triton-X100) mixed with glutathione-Sepharose beads 12 h at 4°C to bring down the GST fusion protein; associated transfected or endogenous proteins detected by western blot"}},
  "note": "These are yes or no findings as the source states them, for the method shown. Binding can be weak; no strength is given. Tags and fused reporters may be left off the sequences shown. For some of these results: In cells and extracts the contact can be indirect.",
  "data": [
    {"substance": "Flag-MKK7β1 (enzyme)", "values": [
      {"measurement": "binding", "setting": "[1]", "result": "binds"},
      {"measurement": "binding", "setting": "[2]", "result": "binds"}
    ]},
    {"substance": "HA-VRK2A (K169E), kinase-dead (from UniProt Q86Y07-1) (enzyme)", "values": [
      {"measurement": "binding", "setting": "[2]", "result": "binds"}
    ]},
    {"substance": "HA-VRK2B (K169E), kinase-dead (from UniProt Q86Y07-2) (enzyme)", "values": [
      {"measurement": "binding", "setting": "[2]", "result": "binds"}
    ]}
  ]
}
